Test results as given in US6528493B2, “Screening methods for identifying modulators of proliferation and differentiation of bone cells” (GSF-Forschungzentrum fur Umwelt und Gesundheit, GmbH, priority 1998, dated 2003).
At least one compound was matched to its structure with a doubt left.

Assays:
Assay type in all cases: cell-based, mouse
K12-S2 cells = assay: MTT proliferation assay, K12-S2 cells; details: 50 nM DEX during preculturing and/or the assay period
T1 mRNA = assay: T1 expression in K12 T1-antisense transfectants (Northern blot, immunoprecipitation); details: K12-AS cells, DEX 50 nM
K12-AS2 cells = assay: MTT proliferation assay, K12-AS2 cells (DEX-inducible T1-antisense construct)
K12 cells = assay: MTT proliferation assay, K12 cells; details: 50 nM DEX during preculturing and/or the assay period

C[C@@H]1C[C@H]2[C@@H]3CCC4=CC(=O)C=C[C@]4(C)[C@@]3(F)[C@@H](O)C[C@]2(C)[C@@]1(O)C(=O)CO [DEX, dexamethasone]
cell density after four days of culture (K12-S2 cells): reduced the cell density | expression of both variants of T1 mRNA (T1 mRNA): considerably reduced | time of maximal repression of T1 mRNA after addition of DEX (T1 mRNA): within three hours | proliferation (K12-AS2 cells; K12-AS2 cells precultured three days with 50 nM DEX, assay in absence or presence of DEX): significantly enhanced their proliferation | final cell density (K12-AS2 cells; K12-AS2 cells, DEX added exclusively during the assay period): enhanced final cell density slightly | cell density after four days of culture (K12 cells): reduced the cell density
